# In the supplement of paper PMC6411743:
# By UniProt entry, the sequences of proteins in these tests, tags left out. Where a name states a change or a piece, a line headed by the entry shows the natural chain unless it says otherwise.
# UniProt Q9Y371: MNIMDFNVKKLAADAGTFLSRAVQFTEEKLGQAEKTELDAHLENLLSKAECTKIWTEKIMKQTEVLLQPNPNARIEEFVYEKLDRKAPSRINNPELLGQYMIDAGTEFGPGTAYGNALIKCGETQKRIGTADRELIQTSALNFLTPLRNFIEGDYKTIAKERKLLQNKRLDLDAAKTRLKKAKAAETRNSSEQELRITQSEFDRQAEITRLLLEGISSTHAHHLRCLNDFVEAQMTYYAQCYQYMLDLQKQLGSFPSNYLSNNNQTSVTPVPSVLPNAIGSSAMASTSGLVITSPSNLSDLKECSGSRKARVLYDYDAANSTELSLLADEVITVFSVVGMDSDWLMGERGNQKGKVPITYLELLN
# UniProt Q9Y490: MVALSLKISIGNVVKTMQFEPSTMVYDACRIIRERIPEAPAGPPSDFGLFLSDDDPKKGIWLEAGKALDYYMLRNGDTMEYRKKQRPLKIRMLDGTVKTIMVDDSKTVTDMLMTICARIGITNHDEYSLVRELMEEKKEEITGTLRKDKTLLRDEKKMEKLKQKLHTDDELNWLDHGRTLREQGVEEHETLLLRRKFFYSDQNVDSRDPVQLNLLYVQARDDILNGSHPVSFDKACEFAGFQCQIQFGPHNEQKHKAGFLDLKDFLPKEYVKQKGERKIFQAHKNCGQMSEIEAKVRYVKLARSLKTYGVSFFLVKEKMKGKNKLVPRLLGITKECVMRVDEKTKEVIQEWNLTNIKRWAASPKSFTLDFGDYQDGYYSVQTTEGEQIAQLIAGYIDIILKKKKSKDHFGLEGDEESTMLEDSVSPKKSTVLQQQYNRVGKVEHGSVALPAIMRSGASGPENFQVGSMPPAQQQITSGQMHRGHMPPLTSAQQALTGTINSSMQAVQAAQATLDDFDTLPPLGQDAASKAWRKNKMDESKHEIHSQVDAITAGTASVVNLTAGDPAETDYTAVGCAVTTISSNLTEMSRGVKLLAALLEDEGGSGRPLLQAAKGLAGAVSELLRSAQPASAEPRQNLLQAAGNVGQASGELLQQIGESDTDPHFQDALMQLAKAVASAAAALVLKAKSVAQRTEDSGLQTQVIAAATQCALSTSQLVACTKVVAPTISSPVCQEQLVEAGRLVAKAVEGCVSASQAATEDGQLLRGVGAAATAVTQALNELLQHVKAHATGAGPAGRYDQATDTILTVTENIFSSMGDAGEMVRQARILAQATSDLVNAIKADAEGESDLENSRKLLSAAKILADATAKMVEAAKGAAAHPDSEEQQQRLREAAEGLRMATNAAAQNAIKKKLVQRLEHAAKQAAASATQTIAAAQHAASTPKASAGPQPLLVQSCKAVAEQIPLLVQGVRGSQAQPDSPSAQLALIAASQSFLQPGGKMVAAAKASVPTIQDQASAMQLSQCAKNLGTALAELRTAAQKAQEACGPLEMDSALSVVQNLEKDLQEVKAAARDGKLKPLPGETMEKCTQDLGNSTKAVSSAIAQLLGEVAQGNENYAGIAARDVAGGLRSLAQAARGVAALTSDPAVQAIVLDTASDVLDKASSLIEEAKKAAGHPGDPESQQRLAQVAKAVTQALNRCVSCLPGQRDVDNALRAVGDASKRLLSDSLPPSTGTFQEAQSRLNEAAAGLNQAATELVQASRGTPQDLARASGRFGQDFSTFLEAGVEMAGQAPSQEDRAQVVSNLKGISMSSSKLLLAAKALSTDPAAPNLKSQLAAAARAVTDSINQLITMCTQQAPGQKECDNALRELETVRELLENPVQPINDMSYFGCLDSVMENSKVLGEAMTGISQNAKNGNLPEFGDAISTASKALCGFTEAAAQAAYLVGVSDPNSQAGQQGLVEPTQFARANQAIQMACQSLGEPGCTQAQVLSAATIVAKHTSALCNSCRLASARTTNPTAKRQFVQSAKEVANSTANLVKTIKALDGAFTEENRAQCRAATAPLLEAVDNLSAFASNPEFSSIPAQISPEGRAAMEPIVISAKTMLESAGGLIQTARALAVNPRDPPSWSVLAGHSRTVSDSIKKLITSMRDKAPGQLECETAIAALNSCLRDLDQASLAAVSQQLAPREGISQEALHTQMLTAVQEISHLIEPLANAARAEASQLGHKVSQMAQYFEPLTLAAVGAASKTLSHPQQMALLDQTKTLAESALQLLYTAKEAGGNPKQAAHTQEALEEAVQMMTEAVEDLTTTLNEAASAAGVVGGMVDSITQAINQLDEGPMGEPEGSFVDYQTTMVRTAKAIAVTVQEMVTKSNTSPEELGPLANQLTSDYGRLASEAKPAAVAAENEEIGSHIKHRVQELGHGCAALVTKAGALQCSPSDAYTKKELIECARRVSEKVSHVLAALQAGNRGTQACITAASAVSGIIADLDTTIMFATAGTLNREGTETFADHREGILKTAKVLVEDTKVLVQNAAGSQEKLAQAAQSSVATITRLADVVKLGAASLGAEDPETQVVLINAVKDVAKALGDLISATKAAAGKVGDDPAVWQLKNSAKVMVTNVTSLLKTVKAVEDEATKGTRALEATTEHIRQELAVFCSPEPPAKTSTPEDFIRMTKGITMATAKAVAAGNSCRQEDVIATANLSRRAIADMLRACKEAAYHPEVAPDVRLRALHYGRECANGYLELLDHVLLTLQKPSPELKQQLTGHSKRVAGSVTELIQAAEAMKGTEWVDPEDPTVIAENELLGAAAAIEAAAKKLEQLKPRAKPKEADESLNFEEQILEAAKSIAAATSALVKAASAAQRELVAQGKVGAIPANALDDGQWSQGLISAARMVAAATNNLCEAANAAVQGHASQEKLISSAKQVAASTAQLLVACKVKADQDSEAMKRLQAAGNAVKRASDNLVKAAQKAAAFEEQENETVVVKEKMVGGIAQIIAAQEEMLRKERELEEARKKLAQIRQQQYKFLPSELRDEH
# UniProt Q9Y5W8: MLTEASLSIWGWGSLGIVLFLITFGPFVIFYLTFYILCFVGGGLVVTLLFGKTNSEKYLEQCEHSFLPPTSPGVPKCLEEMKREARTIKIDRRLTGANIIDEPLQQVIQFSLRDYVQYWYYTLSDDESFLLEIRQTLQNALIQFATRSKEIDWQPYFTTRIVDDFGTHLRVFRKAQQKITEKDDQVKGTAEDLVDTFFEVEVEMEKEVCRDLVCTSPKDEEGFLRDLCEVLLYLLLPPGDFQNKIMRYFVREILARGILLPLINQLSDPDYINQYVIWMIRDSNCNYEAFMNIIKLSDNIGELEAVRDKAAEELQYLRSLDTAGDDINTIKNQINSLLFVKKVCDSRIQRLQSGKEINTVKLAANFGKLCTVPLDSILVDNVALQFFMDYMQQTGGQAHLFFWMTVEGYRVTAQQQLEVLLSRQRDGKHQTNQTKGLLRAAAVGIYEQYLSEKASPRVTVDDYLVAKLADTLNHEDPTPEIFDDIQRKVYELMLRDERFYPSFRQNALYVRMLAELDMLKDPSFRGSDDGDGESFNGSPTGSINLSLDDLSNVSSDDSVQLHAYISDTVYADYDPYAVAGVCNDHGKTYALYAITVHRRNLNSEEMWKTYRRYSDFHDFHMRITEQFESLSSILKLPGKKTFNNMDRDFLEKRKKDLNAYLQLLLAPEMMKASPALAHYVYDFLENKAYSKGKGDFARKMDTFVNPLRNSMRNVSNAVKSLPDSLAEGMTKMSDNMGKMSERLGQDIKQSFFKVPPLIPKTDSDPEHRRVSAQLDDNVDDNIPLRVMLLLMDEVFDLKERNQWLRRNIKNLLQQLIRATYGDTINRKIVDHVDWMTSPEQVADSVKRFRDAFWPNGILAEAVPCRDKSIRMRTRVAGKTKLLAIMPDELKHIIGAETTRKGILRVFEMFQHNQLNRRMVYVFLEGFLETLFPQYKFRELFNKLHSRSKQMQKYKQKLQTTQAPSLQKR
# UniProt Q9Y2L1: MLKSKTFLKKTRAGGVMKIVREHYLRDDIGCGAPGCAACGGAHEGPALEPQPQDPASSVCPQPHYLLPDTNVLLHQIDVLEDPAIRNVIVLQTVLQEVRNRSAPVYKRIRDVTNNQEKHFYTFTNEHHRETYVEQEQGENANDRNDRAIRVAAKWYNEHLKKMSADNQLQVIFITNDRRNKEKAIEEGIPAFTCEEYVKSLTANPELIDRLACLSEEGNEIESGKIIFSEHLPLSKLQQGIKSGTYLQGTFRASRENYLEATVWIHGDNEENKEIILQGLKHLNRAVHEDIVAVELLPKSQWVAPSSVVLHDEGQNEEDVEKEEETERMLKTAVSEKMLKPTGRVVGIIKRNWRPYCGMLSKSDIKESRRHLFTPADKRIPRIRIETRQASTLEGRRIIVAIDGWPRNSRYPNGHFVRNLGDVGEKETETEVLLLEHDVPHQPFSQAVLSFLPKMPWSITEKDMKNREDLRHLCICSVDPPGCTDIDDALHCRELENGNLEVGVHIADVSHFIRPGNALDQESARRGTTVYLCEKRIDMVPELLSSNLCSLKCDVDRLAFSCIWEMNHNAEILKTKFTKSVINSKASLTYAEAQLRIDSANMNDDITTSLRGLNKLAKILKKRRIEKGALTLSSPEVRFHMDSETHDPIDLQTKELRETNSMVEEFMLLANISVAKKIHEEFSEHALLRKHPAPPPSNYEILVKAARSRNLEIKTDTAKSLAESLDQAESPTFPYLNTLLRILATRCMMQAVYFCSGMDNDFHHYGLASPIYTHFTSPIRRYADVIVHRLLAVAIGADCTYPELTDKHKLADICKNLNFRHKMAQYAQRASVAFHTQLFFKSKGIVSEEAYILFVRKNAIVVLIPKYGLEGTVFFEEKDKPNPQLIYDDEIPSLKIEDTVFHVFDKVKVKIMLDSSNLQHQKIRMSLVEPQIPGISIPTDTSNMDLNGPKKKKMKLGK
# UniProt Q9Y2X9: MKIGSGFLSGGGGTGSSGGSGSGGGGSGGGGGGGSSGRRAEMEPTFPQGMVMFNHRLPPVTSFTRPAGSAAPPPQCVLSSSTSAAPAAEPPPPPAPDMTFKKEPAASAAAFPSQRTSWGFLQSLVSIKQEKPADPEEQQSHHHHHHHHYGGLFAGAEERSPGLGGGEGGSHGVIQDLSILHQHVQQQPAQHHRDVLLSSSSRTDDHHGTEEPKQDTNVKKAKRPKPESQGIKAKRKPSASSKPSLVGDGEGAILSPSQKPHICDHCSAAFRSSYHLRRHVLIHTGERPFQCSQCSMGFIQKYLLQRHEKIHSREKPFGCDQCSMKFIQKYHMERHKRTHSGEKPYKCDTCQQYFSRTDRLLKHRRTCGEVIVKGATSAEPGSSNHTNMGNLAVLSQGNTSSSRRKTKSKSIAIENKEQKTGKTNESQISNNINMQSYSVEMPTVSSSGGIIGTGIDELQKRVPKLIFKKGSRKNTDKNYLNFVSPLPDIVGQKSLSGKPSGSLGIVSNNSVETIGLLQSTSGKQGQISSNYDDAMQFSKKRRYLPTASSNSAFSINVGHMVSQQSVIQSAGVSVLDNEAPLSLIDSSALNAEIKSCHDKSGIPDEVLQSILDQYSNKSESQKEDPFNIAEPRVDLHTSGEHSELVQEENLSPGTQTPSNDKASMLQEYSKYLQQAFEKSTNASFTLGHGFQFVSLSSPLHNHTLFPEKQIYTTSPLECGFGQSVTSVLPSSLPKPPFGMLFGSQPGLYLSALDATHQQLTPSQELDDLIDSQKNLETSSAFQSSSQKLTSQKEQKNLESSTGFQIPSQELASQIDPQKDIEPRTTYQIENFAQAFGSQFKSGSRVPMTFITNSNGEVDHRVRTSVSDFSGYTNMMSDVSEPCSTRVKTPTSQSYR
# UniProt Q9Y2U5: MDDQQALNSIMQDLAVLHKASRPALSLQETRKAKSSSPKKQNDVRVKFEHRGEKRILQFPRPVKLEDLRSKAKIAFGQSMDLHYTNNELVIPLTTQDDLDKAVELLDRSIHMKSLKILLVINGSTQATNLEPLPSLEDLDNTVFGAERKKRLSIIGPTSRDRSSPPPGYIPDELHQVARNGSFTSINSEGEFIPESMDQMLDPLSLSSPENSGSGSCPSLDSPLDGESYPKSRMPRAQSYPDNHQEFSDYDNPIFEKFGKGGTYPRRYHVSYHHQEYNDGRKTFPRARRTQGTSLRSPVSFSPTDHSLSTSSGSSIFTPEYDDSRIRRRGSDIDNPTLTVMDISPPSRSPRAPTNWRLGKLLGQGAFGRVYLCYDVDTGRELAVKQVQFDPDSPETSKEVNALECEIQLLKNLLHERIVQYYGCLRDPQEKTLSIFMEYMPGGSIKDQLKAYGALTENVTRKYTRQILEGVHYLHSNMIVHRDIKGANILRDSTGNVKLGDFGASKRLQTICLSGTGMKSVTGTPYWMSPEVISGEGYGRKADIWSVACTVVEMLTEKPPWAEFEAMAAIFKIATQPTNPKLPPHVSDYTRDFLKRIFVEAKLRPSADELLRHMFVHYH
# UniProt Q9Y5N6: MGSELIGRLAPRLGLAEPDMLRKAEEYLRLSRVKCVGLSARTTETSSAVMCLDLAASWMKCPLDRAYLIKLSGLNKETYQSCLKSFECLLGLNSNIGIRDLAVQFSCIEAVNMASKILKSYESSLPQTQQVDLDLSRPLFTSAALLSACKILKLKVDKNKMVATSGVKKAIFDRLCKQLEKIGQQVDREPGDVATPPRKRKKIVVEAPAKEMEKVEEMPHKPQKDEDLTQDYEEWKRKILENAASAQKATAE
# ± gives the standard deviation of the averaged measurements. This is a selection; strong and weak results do not stand in their true shares.
# Compound: Nc1ncnc2c1ncn2[C@@H]1O[C@H](COP(=O)(O)OP(=O)(O)OP(=O)(O)O)[C@@H](O)[C@H]1O [adenosine triphosphate]
# Experiment: NP40-soluble protein abundance relative to vehicle (solubility fold change) (ratio); higher = more soluble protein in presence of ATP
# Procedure, shortened: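 Across three independent experiments, values are fold changes against the detergent-processed vehicle for each replicate, based on vsn-normalised intensities. The samples were Jurkat crude lysate treated with eight concentrations (0.1 to 10 mM) for 10 min at room temperature and then 3 min at 37 °C. Lysate was solubilised with 0.8% NP40 and benzonase, ultracentrifuged, and the supernatant analysed by TMT-labelled LC-MS/MS.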
Target,NP40-soluble protein abundance (concentration: 1mM),NP40-soluble protein abundance (concentration: 2mM),NP40-soluble protein abundance (concentration: 4mM),NP40-soluble protein abundance (concentration: 6mM),NP40-soluble protein abundance (concentration: 8mM),NP40-soluble protein abundance (concentration: 10mM)
RNF115 (UniProt Q9Y4L5),0.99 ± 0.11,0.991 ± 0.14,1 ± 0.065,1.01 ± 0.057,0.972 ± 0.17,1.035 ± 0.0042
UniProt Q9Y371 and related entries,0.934 ± 0.028,0.925 ± 0.013,0.928 ± 0.015,0.973 ± 0.02,0.922 ± 0.03,0.916 ± 0.053
UniProt Q9Y2Q5 and related entries,0.883 ± 0.068,0.967 ± 0.053,0.928 ± 0.026,0.833 ± 0.08,0.856 ± 0.055,0.859 ± 0.088
UniProt Q9Y4E8 and related entries,0.974 ± 0.029,0.971 ± 0.044,0.949 ± 0.049,0.972 ± 0.032,0.954 ± 0.024,0.957 ± 0.022
UBIAD1 (UniProt Q9Y5Z9),0.939 ± 0.09,0.997 ± 0.22,1.07 ± 0.13,1.01 ± 0.26,1 ± 0.1,0.901 ± 0.012
ICE1 (UniProt Q9Y2F5),1.18 ± 0.19,1.23 ± 0.23,1.24 ± 0.27,1.42 ± 0.38,1.22 ± 0.26,1.29 ± 0.33
AFG3L2 (UniProt Q9Y4W6),1.01 ± 0.028,1.01 ± 0.018,0.983 ± 0.031,1.03 ± 0.014,1.03 ± 0.044,1.02 ± 0.018
UniProt Q9Y333,0.957 ± 0.031,0.985 ± 0.043,0.9 ± 0.04,0.987 ± 0.024,0.865 ± 0.035,0.928 ± 0.04
SPCS1 (UniProt Q9Y6A9),1.01 ± 0.013,0.991 ± 0.039,0.956 ± 0.011,0.96 ± 0.018,0.96 ± 0.025,0.966 ± 0.06
MRPS23 (UniProt Q9Y3D9),1.01 ± 0.14,0.903 ± 0.13,0.908 ± 0.14,0.877 ± 0.25,0.876 ± 0.16,0.806 ± 0.14
R4GMR5 and related entries (UniProt P48556),0.896 ± 0.051,0.864 ± 0.02,0.828 ± 0.027,0.791 ± 0.035,0.864 ± 0.064,0.825 ± 0.023
RRP7A (UniProt Q9Y3A4),0.988 ± 0.046,0.93 ± 0.12,1 ± 0.049,1.09 ± 0.12,1.1 ± 0.056,1.27 ± 0.21
UniProt Q9Y2H1,1.09 ± 0.047,1.07 ± 0.054,1.02 ± 0.033,1.05 ± 0.098,1.08 ± 0.043,1.02 ± 0.018
TLN1 (UniProt Q9Y490),0.961 ± 0.036,0.946 ± 0.0097,0.911 ± 0.015,0.97 ± 0.017,0.924 ± 0.02,0.918 ± 0.019
UniProt Q9Y5W8 and related entries,1.06 ± 0.22,0.9974 ± 0.0093,1.02 ± 0.041,0.923 ± 0.0043,1.01 ± 0.024,0.956 ± 0.075
DIS3 (UniProt Q9Y2L1),1.03 ± 0.085,0.993 ± 0.083,0.978 ± 0.072,0.95 ± 0.096,1.03 ± 0.056,0.997 ± 0.056
ARFGEF1 (UniProt Q9Y6D6),1.02 ± 0.032,0.9883 ± 0.0067,0.9571 ± 0.0088,0.975 ± 0.023,0.971 ± 0.044,0.955 ± 0.025
CAB39 (UniProt Q9Y376),0.922 ± 0.045,0.954 ± 0.033,0.912 ± 0.028,0.882 ± 0.1,0.909 ± 0.034,0.932 ± 0.016

# Two records picked at random from the list so far, as already listed:
Target,NP40-soluble protein abundance (concentration: 1mM),NP40-soluble protein abundance (concentration: 2mM),NP40-soluble protein abundance (concentration: 4mM),NP40-soluble protein abundance (concentration: 6mM),NP40-soluble protein abundance (concentration: 8mM),NP40-soluble protein abundance (concentration: 10mM)
RRP7A (UniProt Q9Y3A4),0.988 ± 0.046,0.93 ± 0.12,1 ± 0.049,1.09 ± 0.12,1.1 ± 0.056,1.27 ± 0.21
AFG3L2 (UniProt Q9Y4W6),1.01 ± 0.028,1.01 ± 0.018,0.983 ± 0.031,1.03 ± 0.014,1.03 ± 0.044,1.02 ± 0.018

# Following part

Target,NP40-soluble protein abundance (concentration: 1mM),NP40-soluble protein abundance (concentration: 2mM),NP40-soluble protein abundance (concentration: 4mM),NP40-soluble protein abundance (concentration: 6mM),NP40-soluble protein abundance (concentration: 8mM),NP40-soluble protein abundance (concentration: 10mM)
UniProt Q9Y2X9 and related entries,1.01 ± 0.043,0.975 ± 0.07,0.987 ± 0.1,1.06 ± 0.11,0.971 ± 0.09,0.98 ± 0.051
UniProt Q9Y2L9-2|Q9Y2L9 and related entries,0.974 ± 0.039,0.955 ± 0.025,0.986 ± 0.055,0.929 ± 0.062,0.978 ± 0.1,0.997 ± 0.017
X5CMH5 and related entries (UniProt Q03519),1.07 ± 0.071,1.1 ± 0.057,1.09 ± 0.084,0.986 ± 0.11,1.06 ± 0.034,1.06 ± 0.023
INPP5F (UniProt Q9Y2H2),1 ± 0.065,0.995 ± 0.05,1.05 ± 0.043,1.03 ± 0.063,1.03 ± 0.048,1 ± 0.035
UniProt Q9Y2A7 and related entries,1.01 ± 0.17,0.971 ± 0.12,0.971 ± 0.17,0.931 ± 0.12,0.99 ± 0.12,0.923 ± 0.097
UniProt Q9Y2U5,1.01 ± 0.029,0.99 ± 0.016,0.995 ± 0.026,0.943 ± 0.05,0.94 ± 0.054,0.938 ± 0.025
UniProt Q9Y3D0,0.895 ± 0.11,0.949 ± 0.038,0.932 ± 0.056,0.951 ± 0.14,0.918 ± 0.058,0.85 ± 0.11
MRPS16 (UniProt Q9Y3D3),0.953 ± 0.011,0.907 ± 0.086,0.874 ± 0.078,0.849 ± 0.1,0.856 ± 0.11,0.783 ± 0.083
MAD1L1 (UniProt Q9Y6D9),0.98 ± 0.017,0.982 ± 0.015,0.98 ± 0.012,1 ± 0.017,0.956 ± 0.029,0.959 ± 0.016
YBX2 (UniProt Q9Y2T7),1.23 ± 0.37,1.06 ± 0.086,1.02 ± 0.024,1.12 ± 0.037,0.99 ± 0.058,1.03 ± 0.037
CAPN7 (UniProt Q9Y6W3),1.08 ± 0.092,1.04 ± 0.042,1.07 ± 0.067,1.02 ± 0.088,1.03 ± 0.051,1.01 ± 0.029
ORC6 (UniProt Q9Y5N6),0.954 ± 0.033,0.939 ± 0.044,0.931 ± 0.04,0.961 ± 0.061,0.933 ± 0.026,0.93 ± 0.012
TACC3 (UniProt Q9Y6A5),0.948 ± 0.04,0.952 ± 0.026,0.933 ± 0.033,0.978 ± 0.045,0.898 ± 0.017,0.913 ± 0.013
ENPP4 (UniProt Q9Y6X5),1.05 ± 0.042,1.06 ± 0.034,1.03 ± 0.011,1.01 ± 0.063,1.01 ± 0.011,0.959 ± 0.054
UniProt Q9Y2Q9 and related entries,0.995 ± 0.17,0.914 ± 0.14,0.921 ± 0.13,0.931 ± 0.27,0.905 ± 0.19,0.823 ± 0.14
UniProt Q9Y5Q8 and related entries,1.02 ± 0.049,1.04 ± 0.04,1.042 ± 0.0074,0.964 ± 0.025,1.03 ± 0.03,1.03 ± 0.04
UniProt Q9Y4B6 and related entries,1.009 ± 0.00039,0.988 ± 0.024,0.985 ± 0.049,0.992 ± 0.074,1.03 ± 0.065,1.01 ± 0.026
